# Measurements as given in the supplement of paper PMC10849652.
# Protein sequences, listed by entry. Tags and fused reporters are not part of them. Lines headed by an entry give the natural chain unless they say otherwise; changes in a name come on top.
# UniProt Q99497, whole entry, looked up: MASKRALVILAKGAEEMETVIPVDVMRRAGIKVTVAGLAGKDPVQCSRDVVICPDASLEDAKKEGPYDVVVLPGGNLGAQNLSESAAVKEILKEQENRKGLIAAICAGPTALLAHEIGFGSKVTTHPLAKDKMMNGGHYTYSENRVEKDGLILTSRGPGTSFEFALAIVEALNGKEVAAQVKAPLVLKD
# UniProt Q92621: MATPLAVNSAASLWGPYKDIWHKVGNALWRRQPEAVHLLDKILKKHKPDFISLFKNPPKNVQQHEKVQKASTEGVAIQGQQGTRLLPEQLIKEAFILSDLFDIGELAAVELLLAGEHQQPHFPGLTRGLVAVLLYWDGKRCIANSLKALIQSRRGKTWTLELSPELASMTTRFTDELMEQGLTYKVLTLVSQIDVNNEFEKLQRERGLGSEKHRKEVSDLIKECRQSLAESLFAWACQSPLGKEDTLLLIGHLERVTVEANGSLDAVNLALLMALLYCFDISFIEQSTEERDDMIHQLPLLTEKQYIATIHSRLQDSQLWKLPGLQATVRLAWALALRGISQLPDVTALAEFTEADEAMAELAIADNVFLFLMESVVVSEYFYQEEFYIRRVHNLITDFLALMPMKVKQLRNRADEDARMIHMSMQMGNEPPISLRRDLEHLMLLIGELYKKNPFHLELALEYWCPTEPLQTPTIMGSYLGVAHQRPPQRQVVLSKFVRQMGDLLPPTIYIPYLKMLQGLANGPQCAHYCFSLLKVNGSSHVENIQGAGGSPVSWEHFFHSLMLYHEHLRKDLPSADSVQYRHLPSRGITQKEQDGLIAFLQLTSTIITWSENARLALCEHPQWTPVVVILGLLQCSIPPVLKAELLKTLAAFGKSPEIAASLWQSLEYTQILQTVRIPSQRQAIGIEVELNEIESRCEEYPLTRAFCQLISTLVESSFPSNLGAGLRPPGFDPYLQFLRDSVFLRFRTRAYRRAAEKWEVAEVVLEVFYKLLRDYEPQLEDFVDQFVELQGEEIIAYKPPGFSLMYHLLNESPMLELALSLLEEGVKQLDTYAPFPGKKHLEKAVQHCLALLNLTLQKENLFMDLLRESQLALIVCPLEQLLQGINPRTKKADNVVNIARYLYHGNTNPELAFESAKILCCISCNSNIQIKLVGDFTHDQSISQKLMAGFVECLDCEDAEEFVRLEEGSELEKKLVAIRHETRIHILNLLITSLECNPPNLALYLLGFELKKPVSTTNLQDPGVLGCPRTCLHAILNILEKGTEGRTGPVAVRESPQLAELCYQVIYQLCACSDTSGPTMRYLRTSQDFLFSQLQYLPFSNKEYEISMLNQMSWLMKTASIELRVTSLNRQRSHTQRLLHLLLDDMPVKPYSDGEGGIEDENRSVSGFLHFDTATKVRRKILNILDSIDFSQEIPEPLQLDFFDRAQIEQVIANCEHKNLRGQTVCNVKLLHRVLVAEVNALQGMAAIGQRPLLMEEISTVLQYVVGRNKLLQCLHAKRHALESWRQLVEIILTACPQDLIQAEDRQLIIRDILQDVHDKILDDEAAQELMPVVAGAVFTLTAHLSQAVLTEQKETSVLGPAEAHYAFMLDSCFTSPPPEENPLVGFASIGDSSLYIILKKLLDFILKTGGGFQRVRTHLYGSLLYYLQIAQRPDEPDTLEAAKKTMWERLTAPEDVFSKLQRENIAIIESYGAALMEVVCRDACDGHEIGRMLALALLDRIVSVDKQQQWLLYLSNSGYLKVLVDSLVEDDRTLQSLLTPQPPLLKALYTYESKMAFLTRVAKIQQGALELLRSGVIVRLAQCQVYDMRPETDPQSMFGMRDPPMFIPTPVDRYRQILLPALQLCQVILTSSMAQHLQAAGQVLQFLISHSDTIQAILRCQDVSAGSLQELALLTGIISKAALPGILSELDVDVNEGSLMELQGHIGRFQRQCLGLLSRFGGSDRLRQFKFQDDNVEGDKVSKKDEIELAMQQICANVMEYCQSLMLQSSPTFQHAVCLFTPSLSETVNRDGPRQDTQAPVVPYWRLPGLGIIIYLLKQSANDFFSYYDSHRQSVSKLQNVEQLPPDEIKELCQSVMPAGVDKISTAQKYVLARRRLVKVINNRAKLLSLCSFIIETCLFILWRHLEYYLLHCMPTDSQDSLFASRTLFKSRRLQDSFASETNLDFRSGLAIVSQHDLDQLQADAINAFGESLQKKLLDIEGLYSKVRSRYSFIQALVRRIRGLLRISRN
# UniProt Q13177, whole entry, looked up: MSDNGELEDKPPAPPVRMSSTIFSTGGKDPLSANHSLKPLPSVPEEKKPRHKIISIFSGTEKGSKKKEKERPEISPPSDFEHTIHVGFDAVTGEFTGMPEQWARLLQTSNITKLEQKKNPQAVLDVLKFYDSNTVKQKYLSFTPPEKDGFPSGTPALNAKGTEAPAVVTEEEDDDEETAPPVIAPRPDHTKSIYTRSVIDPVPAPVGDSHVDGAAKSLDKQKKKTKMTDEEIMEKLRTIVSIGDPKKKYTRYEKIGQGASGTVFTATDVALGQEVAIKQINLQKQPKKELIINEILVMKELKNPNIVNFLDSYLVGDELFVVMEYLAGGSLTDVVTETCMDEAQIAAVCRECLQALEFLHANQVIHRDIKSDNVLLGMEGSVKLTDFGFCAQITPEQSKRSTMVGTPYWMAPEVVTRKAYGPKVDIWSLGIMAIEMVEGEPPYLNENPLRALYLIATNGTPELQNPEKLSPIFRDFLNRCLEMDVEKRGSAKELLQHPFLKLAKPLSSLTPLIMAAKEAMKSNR
# UniProt Q15102: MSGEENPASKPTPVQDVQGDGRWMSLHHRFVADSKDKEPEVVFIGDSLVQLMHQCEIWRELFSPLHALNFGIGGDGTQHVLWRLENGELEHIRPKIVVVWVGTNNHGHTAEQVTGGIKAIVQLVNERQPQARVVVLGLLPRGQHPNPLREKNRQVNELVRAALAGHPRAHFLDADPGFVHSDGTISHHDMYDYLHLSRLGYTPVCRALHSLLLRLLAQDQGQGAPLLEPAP
# UniProt Q5W0B1: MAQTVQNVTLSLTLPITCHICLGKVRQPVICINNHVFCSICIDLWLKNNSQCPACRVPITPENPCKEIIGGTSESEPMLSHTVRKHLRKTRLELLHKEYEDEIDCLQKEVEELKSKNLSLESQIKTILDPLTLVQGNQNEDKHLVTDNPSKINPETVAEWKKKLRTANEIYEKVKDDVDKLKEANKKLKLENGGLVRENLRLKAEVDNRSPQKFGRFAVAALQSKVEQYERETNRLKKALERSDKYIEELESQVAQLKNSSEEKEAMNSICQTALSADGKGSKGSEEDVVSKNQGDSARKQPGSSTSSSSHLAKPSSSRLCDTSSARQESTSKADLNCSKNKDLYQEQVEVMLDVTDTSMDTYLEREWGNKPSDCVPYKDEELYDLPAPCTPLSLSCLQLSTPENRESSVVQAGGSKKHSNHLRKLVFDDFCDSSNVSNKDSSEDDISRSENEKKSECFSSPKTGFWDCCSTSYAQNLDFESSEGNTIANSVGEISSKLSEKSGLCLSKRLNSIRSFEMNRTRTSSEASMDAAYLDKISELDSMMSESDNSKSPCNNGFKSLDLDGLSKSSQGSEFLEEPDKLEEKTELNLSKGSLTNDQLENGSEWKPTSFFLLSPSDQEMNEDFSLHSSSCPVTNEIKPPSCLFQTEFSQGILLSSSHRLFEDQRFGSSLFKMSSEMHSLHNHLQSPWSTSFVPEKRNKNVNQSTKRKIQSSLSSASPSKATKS
# UniProt O60829: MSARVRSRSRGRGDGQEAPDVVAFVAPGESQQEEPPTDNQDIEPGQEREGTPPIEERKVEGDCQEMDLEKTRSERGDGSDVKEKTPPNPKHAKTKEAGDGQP
# UniProt P13674: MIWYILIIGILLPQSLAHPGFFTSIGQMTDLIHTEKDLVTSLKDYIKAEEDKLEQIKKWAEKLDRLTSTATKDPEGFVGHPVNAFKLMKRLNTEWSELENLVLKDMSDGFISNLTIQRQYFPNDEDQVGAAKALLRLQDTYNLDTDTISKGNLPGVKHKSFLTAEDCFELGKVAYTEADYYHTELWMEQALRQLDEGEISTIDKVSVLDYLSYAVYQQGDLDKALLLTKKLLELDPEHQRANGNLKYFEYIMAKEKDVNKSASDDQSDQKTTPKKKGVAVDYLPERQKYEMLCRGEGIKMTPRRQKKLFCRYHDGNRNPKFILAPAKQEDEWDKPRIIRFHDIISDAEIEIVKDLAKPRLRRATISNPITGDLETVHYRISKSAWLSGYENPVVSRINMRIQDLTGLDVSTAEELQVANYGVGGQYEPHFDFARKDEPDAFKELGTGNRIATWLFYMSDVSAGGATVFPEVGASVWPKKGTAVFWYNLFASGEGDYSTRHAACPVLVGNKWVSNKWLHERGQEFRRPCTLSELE
# UniProt Q9UKK6: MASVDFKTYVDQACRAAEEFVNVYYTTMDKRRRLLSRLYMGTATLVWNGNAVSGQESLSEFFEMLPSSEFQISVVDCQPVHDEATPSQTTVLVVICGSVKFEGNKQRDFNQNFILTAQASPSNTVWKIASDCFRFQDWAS
# UniProt Q99571: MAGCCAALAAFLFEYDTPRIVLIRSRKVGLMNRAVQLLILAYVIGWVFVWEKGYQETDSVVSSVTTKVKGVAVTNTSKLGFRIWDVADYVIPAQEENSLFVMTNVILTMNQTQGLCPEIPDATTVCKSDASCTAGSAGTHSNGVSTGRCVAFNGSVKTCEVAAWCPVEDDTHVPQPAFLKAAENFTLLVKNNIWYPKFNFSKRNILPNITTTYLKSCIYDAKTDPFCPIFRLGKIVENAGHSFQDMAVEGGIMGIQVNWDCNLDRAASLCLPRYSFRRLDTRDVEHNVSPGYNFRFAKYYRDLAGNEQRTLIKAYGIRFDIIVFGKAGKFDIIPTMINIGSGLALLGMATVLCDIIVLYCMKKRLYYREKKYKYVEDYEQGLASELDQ
# UniProt P47900: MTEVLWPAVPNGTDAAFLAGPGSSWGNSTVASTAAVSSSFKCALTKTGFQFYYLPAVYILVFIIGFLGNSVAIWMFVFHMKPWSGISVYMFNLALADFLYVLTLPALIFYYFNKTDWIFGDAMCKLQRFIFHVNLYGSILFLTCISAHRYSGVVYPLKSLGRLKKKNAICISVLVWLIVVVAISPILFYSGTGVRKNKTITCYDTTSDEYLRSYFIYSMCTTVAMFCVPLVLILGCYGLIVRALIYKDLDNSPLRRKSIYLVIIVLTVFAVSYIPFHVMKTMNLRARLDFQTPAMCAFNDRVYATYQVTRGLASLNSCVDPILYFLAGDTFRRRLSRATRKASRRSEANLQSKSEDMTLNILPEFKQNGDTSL
# UniProt Q32P28: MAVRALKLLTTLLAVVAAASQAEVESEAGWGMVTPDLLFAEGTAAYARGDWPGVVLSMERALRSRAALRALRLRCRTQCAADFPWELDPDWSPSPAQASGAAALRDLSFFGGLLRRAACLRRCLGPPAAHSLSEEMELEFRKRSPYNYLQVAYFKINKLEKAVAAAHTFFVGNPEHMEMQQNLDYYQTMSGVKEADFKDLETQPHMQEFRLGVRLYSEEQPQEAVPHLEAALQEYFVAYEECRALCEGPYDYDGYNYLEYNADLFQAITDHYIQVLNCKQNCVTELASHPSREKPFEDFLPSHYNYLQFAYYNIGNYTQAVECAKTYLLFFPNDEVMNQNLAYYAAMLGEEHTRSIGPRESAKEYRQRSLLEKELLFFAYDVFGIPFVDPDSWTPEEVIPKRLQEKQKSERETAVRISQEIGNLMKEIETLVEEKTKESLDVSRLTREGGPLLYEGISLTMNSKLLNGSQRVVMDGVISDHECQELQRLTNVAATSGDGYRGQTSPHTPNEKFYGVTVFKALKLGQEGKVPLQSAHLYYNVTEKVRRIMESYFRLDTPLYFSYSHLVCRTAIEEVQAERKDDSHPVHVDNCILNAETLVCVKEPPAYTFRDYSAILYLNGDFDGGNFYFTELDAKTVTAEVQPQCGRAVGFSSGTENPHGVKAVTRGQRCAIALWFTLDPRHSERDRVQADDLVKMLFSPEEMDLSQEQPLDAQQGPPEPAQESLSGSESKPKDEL
# UniProt P11940, whole entry, looked up: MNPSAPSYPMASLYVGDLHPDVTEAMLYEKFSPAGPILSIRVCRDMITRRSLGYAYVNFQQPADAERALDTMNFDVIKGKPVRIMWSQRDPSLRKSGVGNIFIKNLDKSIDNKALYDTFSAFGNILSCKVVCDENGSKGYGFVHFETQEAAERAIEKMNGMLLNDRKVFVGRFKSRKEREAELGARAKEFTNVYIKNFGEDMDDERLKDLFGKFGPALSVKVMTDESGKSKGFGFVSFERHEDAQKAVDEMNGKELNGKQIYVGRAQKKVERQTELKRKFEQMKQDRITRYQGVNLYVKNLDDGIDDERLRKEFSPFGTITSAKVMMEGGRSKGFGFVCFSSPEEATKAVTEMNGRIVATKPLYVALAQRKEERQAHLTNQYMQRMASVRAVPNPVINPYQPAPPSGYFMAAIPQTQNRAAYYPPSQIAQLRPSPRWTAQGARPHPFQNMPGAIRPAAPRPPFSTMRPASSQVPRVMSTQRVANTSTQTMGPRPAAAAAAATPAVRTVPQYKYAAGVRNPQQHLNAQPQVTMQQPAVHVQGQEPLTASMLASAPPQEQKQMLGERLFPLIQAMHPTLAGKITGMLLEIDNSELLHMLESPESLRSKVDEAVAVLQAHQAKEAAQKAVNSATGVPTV
# This is one part of the list.
# Columns and labels:
# Experiment in all cases: log2 fold change, soluble protein after heating vs DMSO (PISA); higher = thermal stabilisation; K562 lysate, 10 uM; active = over 0.2 and 3.5 SD of the protein, either way, in both replicates (recomputed)
# [1] = compound: CN1CC[C@H](c2c(O)cc(O)c3c(=O)cc(-c4ccccc4Cl)oc23)[C@H](O)C1 [alvocidib]
# In short: (§1)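 Soluble protein was defined as the supernatant remaining after 21,000xg for 90 min, following pooling of heated aliquots and adjustment to 0.5% NP-40 at 4°C. Before that, crude K562 extract at 1 mg/mL protein in PBS pH 7.4 with 1 mM MgCl2 was treated with 10 μM compound for 30 min and heated for 3 min across 48°C-58°C. Quantification used TMTpro 16plex LC-MS/MS with channel sums equalised, and values are log-two fold changes in thermal stability relative to solvent controls from duplicates.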
# [2] = compound: CN1CCc2c(c3ccccc3n2Cc2ccc(C(=O)NO)cc2)C1 [Tubastatin A]
# In short: as §1
# [3] = compound: CNC(=O)C1=CC=CC=C1NC2=NC(=NC=C2Cl)NC3=C(C=C(C=C3)N4CCOCC4)OC
# In short: as §1
# [4] = compound: CNC(=O)c1ccc(Nc2ncc(C(F)(F)F)c(NCc3nccnc3N(C)S(C)(=O)=O)n2)cc1 [defactinib]
# In short: as §1
# [5] = compound: CNc1nc(-c2ccc3c(N)n[nH]c3c2)cc(N2C[C@@H](C(=O)NC3CCCCC3)CC[C@H]2C)n1
# In short: as §1
# [6] = compound: COC(=O)N[C@@H](C)CNc1nccc(-c2cn(C(C)C)nc2-c2cc(Cl)cc(NS(C)(=O)=O)c2F)n1 [encorafenib]
# In short: as §1
# [7] = compound: COC(=O)[C@H](CCSC)NC(=O)C1=C(C=C(C=C1)NC[C@H](CS)N)C2=CC=CC=C2
# In short: as §1
# [8] = compound: COc1cc(Nc2ncc3c(n2)-c2ccc(Cl)cc2C(c2c(F)cccc2OC)=NC3)ccc1C(=O)O [alisertib]
# In short: as §1
# [9] = compound: COc1cc2nc(-c3cc(F)ccc3O)nc(N[C@@H]3CNC[C@H]3C(C)(C)O)c2cc1OC
# In short: as §1
# [10] = compound: COc1cc2ncnc(Nc3ccc(F)c(Cl)c3)c2cc1OCCCN1CCOCC1 [gefitinib]
# In short: as §1
Target,log2 fold change [1],log2 fold change [2],log2 fold change [3],log2 fold change [4],log2 fold change [5],log2 fold change [6],log2 fold change [7],log2 fold change [8],log2 fold change [9],log2 fold change [10]
PARK7 (UniProt Q99497),inactive: 0.019,inactive: 0.057,inactive: -0.009,inactive: -0.07,inactive: 0.075,inactive: -0.054,inactive: 0.004,inactive: 0.018,inactive: 0.013,inactive: -0.005
OGFR (UniProt Q9NZT2),inactive: 0.022,inactive: -0.089,inactive: 0.002,inactive: -0.015,inactive: -0.03,inactive: 0.02,inactive: 0.089,inactive: -0.003,inactive: -0.003,inactive: -0.004
OTUD6B (UniProt Q8N6M0),inactive: 0.049,inactive: 0.032,inactive: 0.016,inactive: 0.026,inactive: -0.033,inactive: -0.009,inactive: 0.001,inactive: -0.029,inactive: -0.012,inactive: -0.017
OCRL (UniProt Q01968),inactive: -0.002,inactive: -0.105,inactive: 0.074,inactive: 0.123,inactive: -0.051,inactive: 0.045,inactive: -0.006,inactive: 0.016,inactive: -0.082,inactive: 0.049
NUP205 (UniProt Q92621),inactive: -0.02,inactive: -0.078,inactive: 0.012,inactive: 0.015,inactive: -0.003,inactive: 0.016,inactive: -0.081,inactive: 0.008,inactive: 0,inactive: -0.018
PAK2 (UniProt Q13177),inactive: 0.022,inactive: 0.038,inactive: -0.005,inactive: -0.007,inactive: 0.002,inactive: -0.014,inactive: -0.044,inactive: -0.026,inactive: 0.007,inactive: 0.001
PARD3 (UniProt Q8TEW0),inactive: -0.035,inactive: -0.087,inactive: -0.021,inactive: 0.144,inactive: -0.031,inactive: 0.007,inactive: 0.061,inactive: -0.013,active: 0.438,inactive: 0.04
OSBPL8 (UniProt Q9BZF1),inactive: 0.027,inactive: -0.021,inactive: 0.011,inactive: 0.054,inactive: 0.035,inactive: 0.07,inactive: 0.07,inactive: 0.001,inactive: 0.072,inactive: 0.029
OXNAD1 (UniProt Q96HP4),inactive: 0.002,inactive: -0.067,inactive: -0.095,inactive: 0.018,inactive: -0.057,inactive: 0.029,inactive: 0.129,inactive: 0.017,inactive: -0.023,inactive: -0.005
PAFAH1B3 (UniProt Q15102),inactive: 0.005,inactive: -0.067,inactive: 0.019,inactive: 0.065,inactive: -0.017,inactive: -0.016,active: 0.212,inactive: 0.058,inactive: -0.022,inactive: -0.02
OBI1 (UniProt Q5W0B1),inactive: 0.005,inactive: -0.113,inactive: 0.096,inactive: 0,inactive: -0.002,inactive: -0.098,inactive: -0.042,inactive: -0.02,inactive: -0.032,inactive: -0.011
PARL (UniProt Q9H300),inactive: 0.022,inactive: 0.02,inactive: 0.036,inactive: 0.05,inactive: -0.044,inactive: -0.005,inactive: 0.057,inactive: 0.006,inactive: -0.01,inactive: -0.052
PAGE4 (UniProt O60829),inactive: 0.086,inactive: 0.027,inactive: -0.072,–,inactive: -0.038,inactive: -0.005,inactive: -0.086,–,inactive: 0.057,–
PAPOLG (UniProt Q9BWT3),inactive: -0.008,inactive: 0.16,inactive: 0.003,inactive: -0.025,inactive: 0.085,inactive: 0.063,inactive: 0.098,inactive: -0.035,–,inactive: 0.062
P4HA1 isoform 2 (UniProt P13674),inactive: -0.13,inactive: -0.246,inactive: 0.108,inactive: -0.037,–,inactive: 0.021,inactive: 0.003,–,–,–
NUP214 isoform 4 (UniProt P35658),inactive: -0.062,inactive: 0.051,inactive: -0.006,–,–,–,–,inactive: 0,inactive: -0.022,inactive: -0.041
P4HA2 (UniProt O15460),inactive: -0.008,inactive: 0.072,inactive: 0.042,inactive: -0.045,inactive: -0.055,inactive: 0.028,inactive: -0.056,–,inactive: -0.039,–
OPLAH (UniProt O14841),inactive: -0.032,inactive: -0.101,inactive: 0.062,inactive: -0.002,inactive: 0.02,inactive: 0.001,inactive: 0.062,inactive: 0.016,inactive: -0.007,inactive: -0.008
PAAT (UniProt Q9H8K7),inactive: 0.009,inactive: -0.019,inactive: -0.044,inactive: 0.042,inactive: 0.039,inactive: 0.012,inactive: -0.002,–,inactive: 0.089,–
PABPC4 isoform 3 (UniProt Q13310),inactive: 0.018,inactive: -0.024,inactive: -0.012,inactive: -0.023,inactive: -0.03,inactive: -0.009,inactive: 0.006,inactive: -0.001,inactive: 0.006,inactive: 0.001
PACS2 isoform 2 (UniProt Q86VP3),inactive: -0.119,inactive: -0.018,inactive: 0.06,–,–,inactive: -0.056,inactive: 0.118,–,–,–
NXT1 (UniProt Q9UKK6),inactive: -0.006,inactive: 0.007,inactive: -0.044,inactive: 0.041,–,–,–,inactive: 0.058,inactive: 0.061,inactive: 0.131
P2RX4 isoform 2 (UniProt Q99571),inactive: -0.097,inactive: 0.033,inactive: 0.038,inactive: -0.093,inactive: 0.1,inactive: 0.001,inactive: 0.028,–,inactive: 0.098,–
P2RY1 (UniProt P47900),inactive: -0.025,inactive: 0.06,inactive: -0.077,–,inactive: -0.013,inactive: 0.054,inactive: 0.057,–,inactive: -0.068,–
P4HA1 (UniProt P13674),inactive: 0,inactive: -0.018,inactive: 0.053,inactive: 0.03,inactive: 0.001,inactive: 0.015,inactive: 0.012,inactive: 0.004,inactive: 0.024,inactive: 0.014
OXA1L (UniProt Q15070),inactive: 0.018,inactive: 0.006,inactive: 0.034,inactive: -0.024,inactive: -0.077,inactive: 0.017,inactive: -0.04,inactive: 0.038,inactive: -0.078,inactive: -0.068
ORAI1 (UniProt Q96D31),inactive: -0.064,inactive: 0.173,inactive: -0.096,–,–,inactive: 0.053,inactive: -0.147,inactive: -0.02,inactive: 0.028,inactive: -0.005
PARG (UniProt Q86W56),inactive: 0.03,inactive: -0.055,inactive: 0.029,inactive: 0.041,inactive: -0.016,inactive: 0.027,inactive: 0.042,inactive: 0,inactive: 0.01,inactive: 0.046
P3H1 (UniProt Q32P28),inactive: 0.005,inactive: -0.002,inactive: 0.019,inactive: 0.004,inactive: 0.01,inactive: 0.035,inactive: -0.035,inactive: -0.025,inactive: 0.025,inactive: -0.008
PABPC1 (UniProt P11940),inactive: 0.051,inactive: -0.004,inactive: -0.037,inactive: -0.004,inactive: -0.059,inactive: -0.006,inactive: -0.038,inactive: -0.009,inactive: -0.009,inactive: 0.022

# Record cards (already shown). Order of values: log2 fold change [1]	log2 fold change [2]	log2 fold change [3]	log2 fold change [4]	log2 fold change [5]	log2 fold change [6]	log2 fold change [7]	log2 fold change [8]	log2 fold change [9]	log2 fold change [10]
# OPLAH (UniProt O14841) as listed: inactive: -0.032	inactive: -0.101	inactive: 0.062	inactive: -0.002	inactive: 0.02	inactive: 0.001	inactive: 0.062	inactive: 0.016	inactive: -0.007	inactive: -0.008
# OGFR (UniProt Q9NZT2) as listed: inactive: 0.022	inactive: -0.089	inactive: 0.002	inactive: -0.015	inactive: -0.03	inactive: 0.02	inactive: 0.089	inactive: -0.003	inactive: -0.003	inactive: -0.004
